Data on 1 molecule can be found in CN103333249A.

The chains behind the UniProt entries cited, without tags or fusion partners. Residues count along the entry.
UniProt Q04609, residues 44-750: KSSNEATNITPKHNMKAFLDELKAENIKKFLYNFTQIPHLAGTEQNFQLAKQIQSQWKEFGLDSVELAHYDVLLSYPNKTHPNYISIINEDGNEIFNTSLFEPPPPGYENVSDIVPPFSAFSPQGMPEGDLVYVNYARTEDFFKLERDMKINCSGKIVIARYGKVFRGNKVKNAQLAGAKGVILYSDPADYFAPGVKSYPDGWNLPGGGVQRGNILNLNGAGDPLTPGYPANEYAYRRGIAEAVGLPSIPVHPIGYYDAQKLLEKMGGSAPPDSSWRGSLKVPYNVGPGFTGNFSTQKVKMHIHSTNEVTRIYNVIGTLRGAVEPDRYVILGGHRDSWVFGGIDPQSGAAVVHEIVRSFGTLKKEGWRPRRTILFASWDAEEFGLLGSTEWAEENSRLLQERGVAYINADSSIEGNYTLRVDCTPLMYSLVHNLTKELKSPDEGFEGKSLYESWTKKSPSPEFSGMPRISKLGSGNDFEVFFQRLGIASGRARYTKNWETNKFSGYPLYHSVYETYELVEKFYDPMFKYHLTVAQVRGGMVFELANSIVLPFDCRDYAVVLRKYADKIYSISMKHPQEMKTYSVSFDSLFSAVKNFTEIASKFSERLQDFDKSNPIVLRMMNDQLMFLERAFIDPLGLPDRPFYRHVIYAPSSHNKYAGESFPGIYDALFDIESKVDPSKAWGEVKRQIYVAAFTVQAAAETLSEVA

These are yes or no findings as the source states them, for the method shown. Some entries that bind do so weakly or less than the wild type.

Experiment [1] deals with 重组PSMA蛋白 expressed in HEK293 EBNA cells (pTT5-PSMA) (human) (UniProt Q04609). Description: Western blot of recombinant PSMA expressed in HEK293 cells.
For experiment [2], the target named is 重组PSMA蛋白 expressed in E. coli (pDEST17-PSMA) (human) (UniProt Q04609). Description: Western blot of recombinant PSMA expressed in E. coli. Background: A western blot detects proteins with antibodies after separation by electrophoresis.

B1: 单克隆抗体mAb L-186 (antibody, V domains shown)
VH: QVQLKQSGPGLVQPSQSLSITCTVSGFSLTNYGLHWVRQSPGKGLEWLGVIWKGGDTDYNVPFMSRLSITRDNSKSQVFFKMNTLQADDTAIYFCALPFYGTPGFAYWGQGTLVTVSA
VL: DIVMTQSHKFMSTSVGDRVSITCKASQDVGTAVAWYQQKPGQSPRLLIYWASTRHTGVPDRFTGSGSGTDFTLTISNVQSEDLTDYFCQQYNSYPFTFGSGTELEIKR
Turning to B1, the binding entry in experiment [1] and in experiment [2] was “binds” each time.
